This note sets out measurements from article PMC9457990.

A negative result means that nothing was seen under these conditions. For some assays here: The exact form of at least one protein or probe is not confirmed.

One series concerns myoglobin (Mb). The series can be described thus: fluorescence beacon displacement. The following applies: 250 nM protein; commercial protein; label: 5'-FAM and 3'-BHQ1 on MB-20.
Series [1] concerns the target human serum albumin (HSA) (Homo sapiens) (UniProt P02768). The series can be described thus: fluorescence beacon displacement. The following applies: 250 nM protein; commercial protein; label: 5'-FAM and 3'-BHQ1 on MB-20.

In the case of “CCGCCCAAATCCCGAAGGGAAGAGTGTAATGACGTCAAACCAGACACATTACACACGCA / CGCGCGTGTAATGTGTCTGGTTTGAGCGCG [M5-5/MB-20 partial duplex]”, the binding result (with myoglobin (Mb); in series [1]) was “no binding” in each case.
